Results are given in words; binding and its absence hold for the method and conditions named. In cells and extracts the contact can be indirect. These calls come from enrichment with a bait or labelling near it, and not all partners need be listed. For some assays here: Tags and fused reporters may be left off the sequences shown.
T1: 3xFLAG-tagged TAF-12 (C. elegans) (UniProt Q9U226)
T1 sequence: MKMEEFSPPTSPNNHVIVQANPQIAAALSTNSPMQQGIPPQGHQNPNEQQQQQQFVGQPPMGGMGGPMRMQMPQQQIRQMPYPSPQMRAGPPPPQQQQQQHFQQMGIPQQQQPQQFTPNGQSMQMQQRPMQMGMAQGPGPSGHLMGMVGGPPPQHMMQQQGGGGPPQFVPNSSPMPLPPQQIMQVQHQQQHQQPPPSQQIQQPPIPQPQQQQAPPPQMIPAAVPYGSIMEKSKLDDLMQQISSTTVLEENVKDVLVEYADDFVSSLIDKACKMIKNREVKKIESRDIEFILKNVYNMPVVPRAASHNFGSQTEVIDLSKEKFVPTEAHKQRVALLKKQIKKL

Sequences of proteins named here, by UniProt entry; tags and fusion partners are left off.
UniProt A0A0K3AR81: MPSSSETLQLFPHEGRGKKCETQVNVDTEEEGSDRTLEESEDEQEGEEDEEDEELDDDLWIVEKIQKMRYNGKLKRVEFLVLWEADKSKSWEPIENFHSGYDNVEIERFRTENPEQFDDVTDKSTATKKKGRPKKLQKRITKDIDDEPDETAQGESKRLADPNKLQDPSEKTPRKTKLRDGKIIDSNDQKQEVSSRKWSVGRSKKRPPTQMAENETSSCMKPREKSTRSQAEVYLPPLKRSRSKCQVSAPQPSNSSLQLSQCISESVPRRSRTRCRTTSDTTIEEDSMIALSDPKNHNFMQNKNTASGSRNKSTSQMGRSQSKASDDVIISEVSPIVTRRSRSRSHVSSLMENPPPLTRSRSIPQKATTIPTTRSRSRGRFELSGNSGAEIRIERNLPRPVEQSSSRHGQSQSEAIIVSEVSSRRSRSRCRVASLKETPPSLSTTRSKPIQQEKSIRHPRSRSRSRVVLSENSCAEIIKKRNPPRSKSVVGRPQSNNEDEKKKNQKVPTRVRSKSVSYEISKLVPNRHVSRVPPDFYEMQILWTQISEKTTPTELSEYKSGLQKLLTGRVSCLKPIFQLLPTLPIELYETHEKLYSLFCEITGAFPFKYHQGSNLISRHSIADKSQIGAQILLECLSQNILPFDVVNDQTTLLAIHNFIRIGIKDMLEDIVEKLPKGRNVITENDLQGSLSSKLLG


Experiments:
[1] = target: T1, 3xFLAG-tagged TAF-12 (C. elegans); test: affinity purification with mass spectrometry
[2] = target: UAD-2::GFP::3xFLAG (C. elegans); test: affinity purification with mass spectrometry

Molecule	binding [1]	binding [2]
UAD-2 (endogenous, in worm lysate) (from UniProt A0A0K3AR81 1-696)	binds	
TAF-12 (endogenous, in worm lysate) (protein, UniProt Q9U226 1-342) MKMEEFSPPTSPNNHVIVQANPQIAAALSTNSPMQQGIPPQGHQNPNEQQQQQQFVGQPPMGGMGGPMRMQMPQQQIRQMPYPSPQMRAGPPPPQQQQQQHFQQMGIPQQQQPQQFTPNGQSMQMQQRPMQMGMAQGPGPSGHLMGMVGGPPPQHMMQQQGGGGPPQFVPNSSPMPLPPQQIMQVQHQQQHQQPPPSQQIQQPPIPQPQQQQAPPPQMIPAAVPYGSIMEKSKLDDLMQQISSTTVLEENVKDVLVEYADDFVSSLIDKACKMIKNREVKKIESRDIEFILKNVYNMPVVPRAASHNFGSQTEVIDLSKEKFVPTEAHKQRVALLKKQIKKL		binds
